Values from PubChem BioAssay AID1259405 (NCATS, 2018).
This is one part, drawn at random, of about 50,000 deposited reagents. About 4,000 of them (8%) count as active. 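Mouse siRNA library applied to hamster cells; one well for each siRNA.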 The numbers tell different reagents against one gene apart. Reagent sequences are not shown.

Purpose: 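Silenced genes that increase secreted GFP made by CHO cells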 (primary screen)
Cell system: Chinese hamster CHO-K1 ovary cells with stable secreted eGFP expression
Reagent: single siRNA against mouse genes, 0.8 pmol siRNA per well (2 µl of 400 nM stock)
Time to read-out: 3 days
Measured: 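Per-well intracellular GFP measured by laser scanning cytometry, plus viability from ATP luminescence, each relative to plate median of non-targeting control wells, in %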
Direction: GFP, % of control: higher = more GFP per well, higher productivity; viability (ATP), % of control: higher = more viable cells (more ATP)
Active means: 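a knock-down is called active if GFP reaches 120% or more of non-targeting control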

| Target gene | reagent no. | GFP, % of control | viability (ATP), % of control | call |
| --- | --- | --- | --- | --- |
| Tex18 (testis expressed gene 18) | 1 | 39.4 | 39.5 | inactive |
| Tex18 (testis expressed gene 18) | 2 | 145 | 140 | active |
| Tex18 (testis expressed gene 18) | 3 | 129 | 138 | active |
| Pld4 (phospholipase D family member 4) | 1 | 81.4 | 83.3 | inactive |
| Pld4 (phospholipase D family member 4) | 2 | 93.9 | 89.7 | inactive |
| Pld4 (phospholipase D family member 4) | 3 | 75.3 | 66.7 | inactive |
| Or9m1 (olfactory receptor family 9 subfamily M member 1) | 1 | 123 | 78.5 | active |
| Or9m1 (olfactory receptor family 9 subfamily M member 1) | 2 | 60.7 | 84 | inactive |
| Or9m1 (olfactory receptor family 9 subfamily M member 1) | 3 | 57.7 | 49.6 | inactive |
| Vwa1 (von Willebrand factor A domain containing 1) | 1 | 123 | 80.9 | active |
| Vwa1 (von Willebrand factor A domain containing 1) | 2 | 56.8 | 52.4 | inactive |
| Vwa1 (von Willebrand factor A domain containing 1) | 3 | 63.7 | 70.3 | inactive |
| Fgfbp1 (fibroblast growth factor binding protein 1) | 1 | 53.7 | 68.5 | inactive |
| Fgfbp1 (fibroblast growth factor binding protein 1) | 2 | 82.4 | 80.9 | inactive |
| Fgfbp1 (fibroblast growth factor binding protein 1) | 3 | 116 | 49.1 | inactive |
| Fbxo42 (F-box protein 42) | 1 | 67.6 | 74.3 | inactive |
| Fbxo42 (F-box protein 42) | 2 | 66.5 | 66.4 | inactive |
| Fbxo42 (F-box protein 42) | 3 | 85.8 | 88.3 | inactive |
| Phlpp1 (PH domain and leucine rich repeat protein phosphatase 1) | 1 | 76.2 | 75.3 | inactive |
| Phlpp1 (PH domain and leucine rich repeat protein phosphatase 1) | 2 | 105 | 45 | inactive |
| Phlpp1 (PH domain and leucine rich repeat protein phosphatase 1) | 3 | 66.9 | 104 | inactive |
| Pttg1ip (pituitary tumor-transforming 1 interacting protein) | 1 | 84 | 105 | inactive |
| Pttg1ip (pituitary tumor-transforming 1 interacting protein) | 2 | 89.4 | 54.7 | inactive |
| Pttg1ip (pituitary tumor-transforming 1 interacting protein) | 3 | 57.1 | 58.1 | inactive |
| Klk15 (kallikrein related-peptidase 15) | 1 | 86.3 | 105 | inactive |
| Klk15 (kallikrein related-peptidase 15) | 2 | 97.2 | 61.4 | inactive |
| Klk15 (kallikrein related-peptidase 15) | 3 | 59.4 | 36.3 | inactive |
| Plaat1 (phospholipase A and acyltransferase 1) | 1 | 113 | 83.4 | inactive |
| Plaat1 (phospholipase A and acyltransferase 1) | 2 | 88.6 | 75.4 | inactive |
| Plaat1 (phospholipase A and acyltransferase 1) | 3 | 132 | 86 | active |
| Klk1b11 (kallikrein 1-related peptidase b11) | 1 | 79.8 | 54.3 | inactive |
| Klk1b11 (kallikrein 1-related peptidase b11) | 2 | 80.2 | 55.9 | inactive |
| Klk1b11 (kallikrein 1-related peptidase b11) | 3 | 61.5 | 48.9 | inactive |
| Rasa1 (RAS p21 protein activator 1) | 1 | 111 | 93.7 | inactive |
| Rasa1 (RAS p21 protein activator 1) | 2 | 77.2 | 64.9 | inactive |
| Rasa1 (RAS p21 protein activator 1) | 3 | 70.1 | 57.8 | inactive |
| Reln (reelin) | 1 | 106 | 97 | inactive |
| Reln (reelin) | 2 | 64.2 | 59.2 | inactive |
| Reln (reelin) | 3 | 82.3 | 84.7 | inactive |
| Eif4g2 (eukaryotic translation initiation factor 4, gamma 2) | 1 | 208 | 147 | active |
| Eif4g2 (eukaryotic translation initiation factor 4, gamma 2) | 2 | 125 | 94.6 | active |
| Eif4g2 (eukaryotic translation initiation factor 4, gamma 2) | 3 | 89.5 | 76.1 | inactive |
| Shpk (sedoheptulokinase) | 1 | 53.7 | 73.8 | inactive |
| Eaf2 (ELL associated factor 2) | 1 | 67.5 | 70.4 | inactive |
| Eaf2 (ELL associated factor 2) | 2 | 45.1 | 92 | inactive |
| Eaf2 (ELL associated factor 2) | 3 | 159 | 70.4 | active |
| Or2y14 (olfactory receptor family 2 subfamily Y member 14) | 1 | 84.7 | 86.4 | inactive |
| Or2y14 (olfactory receptor family 2 subfamily Y member 14) | 2 | 78.6 | 92.5 | inactive |
| Or2y14 (olfactory receptor family 2 subfamily Y member 14) | 3 | 31.3 | 57.6 | inactive |
| Agr3 (anterior gradient 3) | 1 | 70.8 | 74.8 | inactive |
| Agr3 (anterior gradient 3) | 2 | 133 | 57.5 | active |
| Agr3 (anterior gradient 3) | 3 | 97 | 67.9 | inactive |
| Kcnj3 (potassium inwardly-rectifying channel, subfamily J, member 3) | 1 | 148 | 71.7 | active |
| Kcnj3 (potassium inwardly-rectifying channel, subfamily J, member 3) | 2 | 104 | 108 | inactive |
| Kcnj3 (potassium inwardly-rectifying channel, subfamily J, member 3) | 3 | 68.7 | 107 | inactive |
| Izumo1 (izumo sperm-egg fusion 1) | 1 | 65.8 | 84.2 | inactive |
| Izumo1 (izumo sperm-egg fusion 1) | 2 | 54.3 | 86 | inactive |
| Izumo1 (izumo sperm-egg fusion 1) | 3 | 86.4 | 88.8 | inactive |
| Pink1 (PTEN induced putative kinase 1) | 1 | 82.3 | 75.9 | inactive |
| Bbs5 (Bardet-Biedl syndrome 5) | 1 | 90.4 | 70.6 | inactive |
| Bbs5 (Bardet-Biedl syndrome 5) | 2 | 54.7 | 70.4 | inactive |
| Bbs5 (Bardet-Biedl syndrome 5) | 3 | 35.8 | 50.3 | inactive |
| Tmem179 (transmembrane protein 179) | 1 | 27.1 | 29.3 | inactive |
| Tmem179 (transmembrane protein 179) | 2 | 94.4 | 87.9 | inactive |
| Tmem179 (transmembrane protein 179) | 3 | 76.4 | 75 | inactive |
| Naa38 (N(alpha)-acetyltransferase 38, NatC auxiliary subunit) | 1 | 70 | 70.9 | inactive |
| Naa38 (N(alpha)-acetyltransferase 38, NatC auxiliary subunit) | 2 | 96.8 | 85.5 | inactive |
| Naa38 (N(alpha)-acetyltransferase 38, NatC auxiliary subunit) | 3 | 54.5 | 38.1 | inactive |
| Atp5mc3 (ATP synthase membrane subunit c locus 3) | 1 | 62.6 | 73.3 | inactive |
| Atp5mc3 (ATP synthase membrane subunit c locus 3) | 2 | 79.3 | 90 | inactive |
| Atp5mc3 (ATP synthase membrane subunit c locus 3) | 3 | 98.5 | 68.7 | inactive |
| Nutm1 (NUT midline carcinoma, family member 1) | 1 | 87 | 47.4 | inactive |
| Nutm1 (NUT midline carcinoma, family member 1) | 2 | 70.4 | 70.4 | inactive |
| Nutm1 (NUT midline carcinoma, family member 1) | 3 | 59.8 | 33.5 | inactive |
| Mc5r (melanocortin 5 receptor) | 1 | 83.5 | 63.7 | inactive |
| Mc5r (melanocortin 5 receptor) | 2 | 108 | 61.1 | inactive |
| Mc5r (melanocortin 5 receptor) | 3 | 105 | 59.2 | inactive |
| Rspo2 (R-spondin 2) | 1 | 85.1 | 71.1 | inactive |
| Rspo2 (R-spondin 2) | 2 | 73.7 | 88.2 | inactive |
| Rspo2 (R-spondin 2) | 3 | 73.4 | 63.9 | inactive |
| Snx1 (sorting nexin 1) | 1 | 105 | 111 | inactive |
| Snx1 (sorting nexin 1) | 2 | 103 | 75.4 | inactive |
| Camk1d (calcium/calmodulin-dependent protein kinase ID) | 1 | 155 | 103 | active |
| Camk1d (calcium/calmodulin-dependent protein kinase ID) | 2 | 50.9 | 35 | inactive |
| Camk1d (calcium/calmodulin-dependent protein kinase ID) | 3 | 82.9 | 69.5 | inactive |
| Pcdhb21 (protocadherin beta 21) | 1 | 81.3 | 81.8 | inactive |
| Pcdhb21 (protocadherin beta 21) | 2 | 0.0638 | 115 | inactive |
| Thap4 (THAP domain containing 4) | 1 | 27.6 | 63 | inactive |
| Thap4 (THAP domain containing 4) | 2 | 80.3 | 89.2 | inactive |
| Thap4 (THAP domain containing 4) | 3 | 130 | 186 | active |
| Sars1 (seryl-tRNA synthetase 1) | 1 | 93 | 104 | inactive |
| Sars1 (seryl-tRNA synthetase 1) | 2 | 79.2 | 77.4 | inactive |
| Flrt3 (fibronectin leucine rich transmembrane protein 3) | 1 | 42.7 | 49.9 | inactive |
| Flrt3 (fibronectin leucine rich transmembrane protein 3) | 2 | 76.9 | 83.4 | inactive |
| Flrt3 (fibronectin leucine rich transmembrane protein 3) | 3 | 75.9 | 63.2 | inactive |
| Thtpa (thiamine triphosphatase) | 1 | 64.3 | 58.8 | inactive |
| Thtpa (thiamine triphosphatase) | 2 | 114 | 115 | inactive |
| Thtpa (thiamine triphosphatase) | 3 | 89.7 | 69.3 | inactive |
| Trnt1 (tRNA nucleotidyl transferase, CCA-adding, 1) | 1 | 78.6 | 112 | inactive |
| Trnt1 (tRNA nucleotidyl transferase, CCA-adding, 1) | 2 | 72.1 | 99.9 | inactive |
| Katnb1 (katanin p80 (WD40-containing) subunit B 1) | 1 | 50.7 | 64.3 | inactive |
| Katnb1 (katanin p80 (WD40-containing) subunit B 1) | 2 | 70 | 56 | inactive |
| Katnb1 (katanin p80 (WD40-containing) subunit B 1) | 3 | 70.1 | 85.1 | inactive |
| Rfx1 (regulatory factor X, 1 (influences HLA class II expression)) | 1 | 106 | 102 | inactive |
| Rfx1 (regulatory factor X, 1 (influences HLA class II expression)) | 2 | 78.5 | 67.1 | inactive |
| Rfx1 (regulatory factor X, 1 (influences HLA class II expression)) | 3 | 103 | 97.7 | inactive |
| Fam117b (family with sequence similarity 117, member B) | 1 | 95.1 | 75.9 | inactive |
| Fam117b (family with sequence similarity 117, member B) | 2 | 96.3 | 87.3 | inactive |
| Fam117b (family with sequence similarity 117, member B) | 3 | 119 | 111 | inactive |

As entered above.
Value of Thtpa (thiamine triphosphatase) #2 in “call”: inactive
For “call”, Or2y14 (olfactory receptor family 2 subfamily Y member 14) #2 has inactive
Entry of Naa38 (N(alpha)-acetyltransferase 38, NatC auxiliary subunit) #2 in “call”: inactive
Or9m1 (olfactory receptor family 9 subfamily M member 1) #2, call = inactive
Result for Tmem179 (transmembrane protein 179) #1 under “GFP, % of control”: 27.1
Result of Vwa1 (von Willebrand factor A domain containing 1) #2 under “call”: inactive
